The test system of one test is A2780. Kind of test: cell growth inhibition ratio vs untreated control (CCK8); higher = stronger inhibition of cell viability. Particulars: 10 µM; 48 h. On the procedure: (§1)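 Natural product library (Topscience) screened at 10 µM final concentration for 48 h on ovarian cancer A2780 cells and patient-derived ovarian cancer cells (PDC) in 96-well plates; viability read by CCK8 and reported as inhibition ratio (%) relative to untreated control. Single-dose primary screen.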

Test [1] concerns patient-derived ovarian cancer cells (PDC). The description is as above. Particulars: 10 µM; 48 h. As for the experimental part: as §1

The values below come from the supplement of paper PMC10373366.

The list shows a part of the results. Repeats are few or missing, and single values can be far off.

As to `CC1(C)CC[C@]2(C(=O)O)CC[C@]3(CO)C(=CC[C@@H]4[C@@]5(C)C[C@H](O)[C@H](O[C@@H]6O[C@H](CO)[C@@H](O)[C@H](O)[C@H]6O)[C@@](C)(C(=O)O)[C@@H]5CC[C@]43C)[C@@H]2C1` [Tenuifolin], the entries for the “cell growth inhibition ratio” value (with A2780; in test [1]) were 16.8% and 8.94%, respectively.

With `C[C@@H]1O[C@@H](O[C@H]2[C@H](Oc3cc(O)c4c(c3)O[C@H](c3ccc(O)cc3)CC4=O)O[C@H](CO)[C@@H](O)[C@@H]2O)[C@H](O)[C@H](O)[C@H]1O` [Naringin], the “cell growth inhibition ratio” value was -6.93% with A2780 and 23.1% in test [1].

In the case of `Oc1cc(O)cc(/C=C/c2ccc(O)c(O)c2)c1` [Piceatannol], the “cell growth inhibition ratio” value in the test on A2780 was 16.2%; in test [1], -13.7%.

`CC(=O)O[C@H]1C(=O)[C@@]2(C)[C@H]([C@H](OC(=O)c3ccccc3)[C@]3(O)C[C@H](OC(=O)[C@H](O)[C@@H](NC(=O)c4ccccc4)c4ccccc4)C(C)=C1C3(C)C)[C@]1(OC(C)=O)CO[C@@H]1C[C@@H]2O` [Paclitaxel]: the “cell growth inhibition ratio” value in the test with A2780 stood at 83.5%; in test [1], 71.7%.

On to `O=C1C(c2[nH]c3ccccc3c2O)=Nc2ccccc21` [Indigo], for which the “cell growth inhibition ratio” value in the test with A2780 came to 3.61%; in test [1], 19.2%.

Take `COc1cc(C2Oc3cc([C@H]4Oc5cc(O)cc(O)c5C(=O)[C@@H]4O)ccc3OC2CO)ccc1O` (stereo not given in full) [Silymarin]: the “cell growth inhibition ratio” value in the test with A2780 was 52.1%; in test [1], 21.2%.

For the molecule `CC[C@H](C)C(=O)O[C@H]1C[C@@H](C)C=C2C=C[C@H](C)[C@H](CC[C@@H]3C[C@@H](O)CC(=O)O3)[C@H]21` [Lovastatin], the “cell growth inhibition ratio” value in the test on A2780 was 60.9%; in test [1] it was -25.1%.

For `COc1ccc(/C=C\c2cc(OC)c(OC)c(OC)c2)cc1O` [Combretastatin A4], the “cell growth inhibition ratio” value in the test with A2780 came to 87.1%; in test [1], 34%.

In the case of `CC(C)CCC[C@@H](C)[C@H]1CC[C@H]2[C@@H]3CC[C@H]4CC(=O)CC[C@]4(C)[C@H]3CC[C@]12C` [5alpha-Cholestan-3-one], the “cell growth inhibition ratio” value was 3.25% with A2780 and -7.89% in test [1].

Consider `Cn1c(=O)c2c(ncn2CC(=O)O)n(C)c1=O` [Theophylline-7-acetic acid], for which the entries for the “cell growth inhibition ratio” value (in the test with A2780; in test [1]) were -1.29% and -7.27%, respectively.

In the case of `COc1ccc([C@@H]2CC(=O)c3c(O)cc(O[C@@H]4O[C@H](CO[C@@H]5O[C@@H](C)[C@H](O)[C@@H](O)[C@H]5O)[C@@H](O)[C@H](O)[C@H]4O)cc3O2)cc1O` [Hesperidin], the “cell growth inhibition ratio” value in the test with A2780 was -7.94%; in test [1] it was 6.47%.

With `O=c1c(O)c(-c2ccc(O)c(O)c2)oc2cc(O)ccc12` [Fisetin], the “cell growth inhibition ratio” value is -12.4% in the test with A2780 and -5.55% in test [1].

Consider `O=C[C@H](O)[C@@H](O)[C@H](O)CO` (racemic) [DL-Xylose], for which the “cell growth inhibition ratio” value in the test on A2780 is -0.842%; in test [1], -8.94%.

For the molecule `COc1ccc(CCO[C@@H]2O[C@H](CO[C@@H]3OC[C@H](O)[C@H](O)[C@H]3O)[C@@H](OC(=O)/C=C/c3ccc(O)c(OC)c3)[C@H](O[C@@H]3O[C@@H](C)[C@@H](O)[C@@H](O)[C@H]3O)[C@H]2O)cc1O` [Angoroside C], the “cell growth inhibition ratio” value was 3.58% with A2780 and -6.35% in test [1].

For the molecule `O=c1cc(-c2ccccc2)oc2cc(O[C@@H]3O[C@H](CO[C@@H]4O[C@H](CO)[C@@H](O)[C@H](O)[C@H]4O)[C@@H](O)[C@H](O)[C@H]3O)c(O)c(O)c12` [Oroxin B], the “cell growth inhibition ratio” value was found to be 8.89% in the test with A2780 and 2.14% in test [1].

As to `C=C1C[C@@]23CC[C@H]4[C@@](C)(CCC[C@@]4(C)C(=O)O[C@@H]4O[C@H](CO)[C@@H](O)[C@H](O)[C@H]4O)[C@@H]2CC[C@]1(O[C@@H]1O[C@H](CO)[C@@H](O)[C@H](O)[C@H]1O[C@@H]1O[C@H](CO)[C@@H](O)[C@H](O)[C@H]1O)C3` [Stevioside], the results for the “cell growth inhibition ratio” value (with A2780; in test [1]) were 2.83% and -7.07%, respectively.

As to `COc1cc(/C=C/CO)cc(OC)c1O[C@@H]1O[C@H](CO)[C@@H](O)[C@H](O)[C@H]1O` [Syringin], the figures for the “cell growth inhibition ratio” value (in the test with A2780; in test [1]) were 5.06% and -3.8%, respectively.

With `O=C1CC(c2ccccc2)Oc2ccccc21` (stereo not given) [Flavanone], the “cell growth inhibition ratio” value is 9.01% in the test with A2780 and 4.99% in test [1].

For `C[C@@H]1O[C@@H](O[C@H]2[C@H](OC(=O)[C@]34CCC(C)(C)C[C@H]3C3=CC[C@@H]5[C@@]6(C)C[C@H](O)[C@H](O[C@@H]7O[C@H](CO)[C@@H](O)[C@H](O)[C@H]7O)[C@@](C)(CO)[C@@H]6CC[C@@]5(C)[C@]3(C)CC4)O[C@H](CO)[C@@H](O)[C@@H]2O)[C@H](O)[C@H](O)[C@H]1O[C@@H]1OC[C@@H](O)[C@H](O)[C@H]1O` [Polygalasaponin F], the “cell growth inhibition ratio” value in the test on A2780 is 8.7%; in test [1], -4.9%.

`CC(=O)O[C@@]12CO[C@@H]1C[C@H](O)[C@@]1(C)C(=O)[C@H](O)C3=C(C)[C@@H](OC(=O)[C@H](O)[C@@H](NC(=O)OC(C)(C)C)c4ccccc4)C[C@@](O)([C@@H](OC(=O)c4ccccc4)[C@H]21)C3(C)C` [Docetaxel]: the “cell growth inhibition ratio” value in the test with A2780 was 79%; in test [1], 63.7%.
